Patent US7267715B2, “Ink and ink set” (Fujifilm Corporation, priority 2003, dated 2007)
Some entries share one result that the patent states for a list of compounds.

Experiment: Solubility of dye in water
Type: physicochemical
Conditions: in water at 25° C. under atmospheric pressure (per 100 g of water)

Row | SMILES | solubility in water
1 | CC(C)CSc1nnc(/N=N/c2c(C(C)(C)C)nn(-c3nc(Nc4cc(C(=O)[O-])cc(C(=O)[O-])c4)nc(Nc4cc(C(=O)[O-])cc(C(=O)[O-])c4)n3)c2N)s1.[K+].[K+].[K+].[K+] [Y-3] | ≥ 15 g
2 | Cc1c(C#N)c(Nc2ccc(S(=O)(=O)[O-])cc2)nc(Nc2ccc(S(=O)(=O)[O-])cc2)c1N=Nc1sc(N=Nc2cc(C(=O)[O-])cc(C(=O)[O-])c2)cc1C#N.[Li+].[Li+].[Li+].[Li+] [BK-4] | ≥ 15 g
3 | CC(C)(C)c1nn(-c2nc(Nc3cc(C(=O)[O-])cc(C(=O)[O-])c3)nc(Nc3cc(C(=O)[O-])cc(C(=O)[O-])c3)n2)c(N)c1/N=N/c1ncns1.[Na+].[Na+].[Na+].[Na+] [Y-2] | ≥ 15 g
4 | Cc1cc(C)c(S(=O)(=O)[O-])c(C)c1Nc1nc(N(c2nc3ccc(S(=O)(=O)[O-])cc3s2)c2c(C)cc(C)c(S(=O)(=O)O)c2C)ccc1/N=N/c1c(C#N)c(C(C)(C)C)nn1-c1nc2ccc(S(=O)(=O)[O-])cc2s1.[K+].[K+].[Na+] [M-3] | ≥ 15 g
